This note sets out measurements from the supplement of paper PMC4683952.

This is one part of the list. Cut-off read from the data, not from the text of the source: active = 2 or more and inactive = the rest. This data set is noisy: repeats of one test often differ as much as different tests do.

The subject of the experiment is Lgr5 (MarsCy1-Lgr5-EGFP, U2OS). The experiment is described as follows: cell-surface Lgr5 expression (SCi1 fluorescence, background-subtracted) relative to WT DMSO (fold of DMSO control); higher = more Lgr5 at the plasma membrane. Conditions: U2OS MarsCy1-Lgr5-EGFP stable; treatment time: overnight; library: ActiProbe-5K (TimTec); 25 µM.
As to `O=c1[nH]c2cc(S(=O)(=O)NCCCn3ccnc3)ccc2s1`, the “cell-surface Lgr5 expression” value is inactive: 1.06. On to `O=[N+]([O-])c1ccc2c(c1)OCCOCCOc1cc([N+](=O)[O-])ccc1S(=O)(=O)NCCOCCOCCNS2(=O)=O`, for which the “cell-surface Lgr5 expression” value was inactive: 1.4. Take `S=C1NCN(CN2CCN(CN3CNC(=S)NC3)CC2)CN1`: the “cell-surface Lgr5 expression” value is inactive: 1.75. With `CCn1ncc(Cn2nc(C)c(N)c2C)c1C`, the “cell-surface Lgr5 expression” value was inactive: 1.48. For the compound `Cc1cccc2c1N(C)/C(=C/c1cccc[n+]1C)C=C2`, the “cell-surface Lgr5 expression” value is inactive: 1.07. In the case of `CSc1ccc(/C=N\c2ccc3cc4ccc(/N=C\c5ccc(SC)cc5)cc4nc3c2)cc1`, the “cell-surface Lgr5 expression” value is inactive: 1.7. For the compound `O=C1[C@@H]2OC[C@@H](O2)[C@@H]2[C@@H]1[C@H]1c3ccccc3C=CN1[C@H]2C(=O)C12CC3CC(CC(C3)C1)C2`, the “cell-surface Lgr5 expression” value is inactive: 1.24. The value for `CC(C)CC(NC(=O)C1CCCC1)C(N)=O` (configuration not stated) was inactive: 1.11; that for `O=C1NCCN1CCNS(=O)(=O)c1ccc(F)cc1` was inactive: 1.28. Regarding `CS(=O)(=O)N1CCN(S(C)(=O)=O)C(=O)C1`, the “cell-surface Lgr5 expression” value was inactive: 1.06. With `O=C(Cn1cc(Cl)c([N+](=O)[O-])n1)N1CCNCC1`, the “cell-surface Lgr5 expression” value was inactive: 1.33. For `N#Cc1c(SCC(=O)Nc2nccs2)sc2c(O)nc(=O)[nH]c12`, the “cell-surface Lgr5 expression” value is inactive: 1.24. Consider `CS(=O)(=O)Oc1ccc(/C=N\c2cccc(C(F)(F)F)c2)cc1`, for which the “cell-surface Lgr5 expression” value was inactive: 1.12. For the compound `Brc1ccc(-c2cs/c(=N\c3ccccc3)[nH]2)cc1`, the “cell-surface Lgr5 expression” value is inactive: 1.46.

Consider `O=[N+]([O-])c1ccc2nc(Cl)c(Cl)nc2c1`, for which the “cell-surface Lgr5 expression” value was inactive: 1.31. For the compound `Cc1ccnc2c1ccc1cccnc12`, the “cell-surface Lgr5 expression” value is inactive: 0.416.

As to `CCCCCCOC(=O)Nc1nnc(SCC)s1`, the “cell-surface Lgr5 expression” value is inactive: 1.17. On to `COc1ccc(C2NCCc3nc[nH]c32)cc1CSC1=NC2CCCCC2N1.Cl` (configuration not stated), for which the “cell-surface Lgr5 expression” value is inactive: 1.2.

With `CCn1cc(C2CC(C(F)(F)F)n3nccc3N2)c(C)n1` (configuration not stated), the “cell-surface Lgr5 expression” value is inactive: 1.33. In the case of `CSc1nc2ccc(/N=C\c3ccc(Sc4nnnn4-c4ccccc4)o3)cc2s1` it was active: 2.01. Regarding `CS(=O)(=O)N1CCc2cc(S(=O)(=O)Nc3ccc4c(c3)OCO4)ccc21`, the “cell-surface Lgr5 expression” value is inactive: 1.21. The value for `NNC(=O)c1csc2c1CCCC2` was inactive: 1.22; that for `O=C(O)C1CSC(C2CCCCC2)N1` (configuration not stated) was inactive: 1.26. As for `CC(=O)Nc1sc2c(c1-c1nsc(=O)o1)CCCC2`, the “cell-surface Lgr5 expression” value is inactive: 1.39.

`CN(C)c1ccc(Br)c([N+](=O)[O-])c1`: the “cell-surface Lgr5 expression” value is inactive: 1.14. As for `Nc1ccccc1-n1ccnc1`, the “cell-surface Lgr5 expression” value is inactive: 1.27.

For the compound `Nc1ncnc2c1nc(Cl)n2[C@@H]1O[C@H](CO)[C@H](O)[C@H]1O`, the “cell-surface Lgr5 expression” value was inactive: 1.44.
